Data reported in US20220213135A1, “DERIVATIVES OF GLYCERO-MANNO-HEPTOSE PHOSPHATE AND THEIR USE IN MODULATING AN IMMUNE RESPONSE” (Shanghai Yao Yuan Biotechnology Co., Ltd., priority 2019, published 2022).
At least one compound was matched to its structure with a doubt left.

System: chemokine and cytokine expression in liver cells
Assay: Chemokine and cytokine gene expression by qPCR in liver of mice after oral gavage of HMP1BP derivatives
Format: in vivo, mouse
Conditions: C57 female mice, 1 mg/kg oral gavage, 4 hours (FIG. 5A)
Method: FIG. 5A-B. Oral administration of HMP1BP derivatives activates chemokine and cytokine expression in liver cells. 8 week old C57 female mice were administered saline or the indicated compounds by oral gavage, Compounds 2-7 (1 mg·kg) (A) or compounds 9, 10 (1 mg/kg), 11, 13 and 14 (0.1 mg/kg) (B) were tested. Four hours after administration of saline or compound, organs were dissected and gene expression was analyzed by qPCR for CCL2, CCL7, CXCL1, CXCL10, IFNb, IL1b, IL6, and TNFa (A) or CCL2 and CCL7 (B).
Several additional Compound 1 derivatives were tested for cytokine and chemokine gene induction in hepatocytes. […] Mice were treated as described above. Briefly, 8 week-old C57 female mice were separately administered (1 mg/kg) either one of Compounds 2-7 or a saline/DMSO control by oral gavage and 4 hours later the livers were dissected and gene expression analyzed by qPCR. The gene expression results were normalized to GADPH expression. […] The additional genes tested in this experiment are: CXCL1, encoding C—X—C motif chemokine ligand 1; CXCL10, encoding C—X—C motif chemokine ligand 10; IFNb, encoding interferon beta; IL-1b, encoding interleukin 1 beta; IL6, encoding interleukin 6; and TNFα, encoding tumor necrosis factor alpha. […] All the derivatives induced CCL2 and CCL7 more than 20-fold above the control. […]

## CC(=O)OC[C@H](F)[C@H]1O[C@@H](OP(=O)(OCOC(=O)C(C)C)OCOC(=O)C(C)C)[C@@H](OC(C)=O)[C@@H](OC(C)=O)[C@@H]1OC(C)=O [Compound 5, (2S,3S,4S,5S,6S)-2-((S)-2-acetoxy-1-fluoroethyl)-6-((bis((isobutyryloxy)methoxy)phosphoryl)oxy)tetra-hydro-2H-pyran-3,4,5-triyl triacetate]
  IFNb gene induction: strong inductive effect
  IL6 gene induction: strong inductive effect
